Every entry is a combination with U73122 at 2 µM: COc1ccc2c(c1)CCC1C2CCC2(C)C(NCCCCCCN3C(=O)C=CC3=O)CCC12 (stereo not given)

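The test systems are human melanoma cell lines, treated with a pair of drugs for 72 h and then stained and imaged. Each value is the cleaved-PARP-positive fraction of nuclei relative to DMSO-treated wells, in %, so that 100 equals the control and higher values mean more apoptosis. Every drug was used at one fixed concentration, the higher of two screened. The file gives one value for each pair and line, without errors, so small differences may be noise. The marker varies much from line to line, for technical or biological reasons.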
Only some of the drugs and lines screened are listed, without regard to their results.
A dash means that no value is listed here.

Partner,A375,WM1745,UACC-257,C32,SK-MEL-30,MZ2-MEL,COLO 800,RVH-421
Cc1cc([N+](=O)[O-])ccc1NS(=O)(=O)c1cc(Cl)ccc1Cl at 5 µM,363,518,179,131,89.4,219,368,178
CC1(C)CCC(c2ccc(Cl)cc2)=C(CN2CCN(c3ccc(C(=O)NS(=O)(=O)c4ccc(N[C@H](CCN5CCOCC5)CSc5ccccc5)c(S(=O)(=O)C(F)(F)F)c4)cc3)CC2)C1 at 2 µM,1630,-,517,148,427,-,656,283
CCN(CC)CCCCNc1ncc2cc(-c3cc(OC)cc(OC)c3)c(NC(=O)NC(C)(C)C)nc2n1 at 0.5 µM,68.2,98.7,104,165,181,103,154,234
Cn1nnc2c(C(N)=O)ncn2c1=O at 10 µM,127,130,123,106,189,138,200,103
COc1cc(N2CCC(N3CCN(C)CC3)CC2)ccc1Nc1ncc(Cl)c(Nc2ccccc2S(=O)(=O)C(C)C)n1 at 0.4 µM,96.8,193,155,203,36.7,-,198,197
NC1(c2ccc(-c3nc4ccn5c(=O)[nH]nc5c4cc3-c3ccccc3)cc2)CCC1 at 2 µM,92.9,-,66.7,131,233,66.4,167,128
CN(C)S(=O)(=O)c1ccc2c(c1)/C(=C/c1cc3c([nH]1)CCCC3)C(=O)N2 at 2 µM,62.0,134,19.3,97.6,140,147,165,45.4
CNC(=O)c1cc(Oc2ccc(NC(=O)Nc3ccc(Cl)c(C(F)(F)F)c3)cc2)ccn1 at 2 µM,294,-,73.3,134,260,115,134,226
NC(=O)Nc1cc(-c2cccc(F)c2)sc1C(=O)N[C@H]1CCCNC1 at 0.1 µM,101,133,55.1,159,143,152,336,450
CC(C)C[C@H](NC(=O)[C@H](Cc1ccccc1)NC(=O)c1cnccn1)B(O)O at 0.005 µM,154,-,82.9,969,628,935,239,275
CN(c1ncccc1CNc1nc(Nc2ccc3c(c2)CC(=O)N3)ncc1C(F)(F)F)S(C)(=O)=O at 0.4 µM,88.5,-,203,93.8,286,180,70.9,45.4
O=C(CCCCCCC(=O)Nc1ccccc1)NO at 0.4 µM,223,134,145,130,98.6,42.9,102,91.3
Cc1cn(-c2cc(NC(=O)c3ccc(C)c(Nc4nccc(-c5cccnc5)n4)c3)cc(C(F)(F)F)c2)cn1 at 1 µM,90.1,-,77.0,134,82.8,110,97.3,141
COC(=O)c1sccc1S(=O)(=O)Nc1ccc(Nc2ccccc2)cc1OC at 5 µM,106,112,41.5,177,150,86.5,331,51.2
CC(=O)O[C@@]12CO[C@@H]1C[C@H](O)[C@@]1(C)C(=O)[C@H](O)C3=C(C)[C@@H](OC(=O)[C@H](O)[C@@H](NC(=O)OC(C)(C)C)c4ccccc4)C[C@@](O)([C@@H](OC(=O)c4ccccc4)[C@H]21)C3(C)C at 0.0005 µM,248,-,301,143,322,876,394,121
C=C(c1ccc(C(=O)O)cc1)c1cc2c(cc1C)C(C)(C)CCC2(C)C at 10 µM,95.5,-,75.7,81.7,80.2,998,42.5,102
CN1CCN(c2ccc3nc(-c4c(N)c5c(F)cccc5[nH]c4=O)[nH]c3c2)CC1 at 0.5 µM,246,-,62.1,96.4,167,136,79.7,202
COc1cc2ncnc(Nc3ccc(Oc4ccccc4)cc3)c2cc1OC at 10 µM,123,171,115,128,86.1,49.5,67.0,28.4
CC[C@]1(O)C[C@H]2CN(CCc3c([nH]c4ccccc34)[C@@](C(=O)OC)(c3cc4c(cc3OC)N(C=O)[C@H]3[C@@](O)(C(=O)OC)[C@H](OC(C)=O)[C@]5(CC)C=CCN6CC[C@]43[C@@H]65)C2)C1 at 0.0005 µM,270,-,144,172,350,60.0,88.5,194
COc1cc(Nc2ncc(F)c(Nc3ccc4c(n3)NC(=O)C(C)(C)O4)n2)cc(OC)c1OC at 2 µM,166,211,87.0,123,75.5,151,28.4,66.9

Values as published with doi:10.1371/journal.pone.0140310, rounded.